Four compounds from patent US20150164855A1, “KETONE BODIES AND KETONE BODY ESTERS FOR MAINTAINING OR IMPROVING MUSCLE POWER OUTPUT” (priority 2012, published 2015) can be followed below.

“Also recorded” adds a separate entry of the source.

A short description of the data set: Flavour of ketone bodies assessed by a tasting panel.
Where [1] appears, read: ~100 microliters tasted by panel of 8 tasters, qualitative bitterness, Ketones 1 to 8.

`CC(O)CC(=O)OC(C)CC(=O)OC(C)CC(=O)OCC[C@@H](C)OC(=O)CC(C)OC(=O)CC(C)OC(=O)CC(C)O` (stereo partly drawn) [Ketone 10, (R)-1,3-butanediol ditriolide ester]: the Flavour entry runs as follows: (tasted in the same manner as Ketones 1 to 8, Ketones 9 to 13) “aversive flavour; also recorded: aversive to taste”; (tasted in the same manner as Ketones 1 to 8, Ketones 9 to 13, listed as R 1,3 butandiol di triolide ester) “aversive to taste”.

Turning to “(R)-3-hydroxybutyrate-(R)-1,3-butanediol [Ketone 8]”, the Flavour result runs as follows: (tasted in the same manner as Ketones 1 to 8, Ketones 9 to 13, listed as 8/13) “Not bitter, non-aversive”; (tasted in the same manner as Ketones 1 to 8, Ketones 9 to 13, listed as (R)-3-hydroxybutyrate-R-1,3-butanediol monoester) “non-aversive to taste”; under setting [1], “acceptable flavour”.

Consider `CC(O)CC(=O)OCCC(C)OC(=O)CC(C)O` (stereo not shown) [Ketone 7], for which the Flavour result under setting [1] is listed as “very unpleasant although not bitter”.

On to `CC(O)CC(=O)OCC(COC(=O)CC(C)O)OC(=O)CC(C)O` (stereo not shown) [Ketone 5], for which the Flavour entry under setting [1] is listed as “bitter”.
